Assay results published in the supplement of paper PMC10849652.
The other results are listed elsewhere or left out.

Amino acid sequences for entries named in this document (tags omitted). A change or cut given only in a name is not applied to a line headed by its entry.
UniProt Q15334: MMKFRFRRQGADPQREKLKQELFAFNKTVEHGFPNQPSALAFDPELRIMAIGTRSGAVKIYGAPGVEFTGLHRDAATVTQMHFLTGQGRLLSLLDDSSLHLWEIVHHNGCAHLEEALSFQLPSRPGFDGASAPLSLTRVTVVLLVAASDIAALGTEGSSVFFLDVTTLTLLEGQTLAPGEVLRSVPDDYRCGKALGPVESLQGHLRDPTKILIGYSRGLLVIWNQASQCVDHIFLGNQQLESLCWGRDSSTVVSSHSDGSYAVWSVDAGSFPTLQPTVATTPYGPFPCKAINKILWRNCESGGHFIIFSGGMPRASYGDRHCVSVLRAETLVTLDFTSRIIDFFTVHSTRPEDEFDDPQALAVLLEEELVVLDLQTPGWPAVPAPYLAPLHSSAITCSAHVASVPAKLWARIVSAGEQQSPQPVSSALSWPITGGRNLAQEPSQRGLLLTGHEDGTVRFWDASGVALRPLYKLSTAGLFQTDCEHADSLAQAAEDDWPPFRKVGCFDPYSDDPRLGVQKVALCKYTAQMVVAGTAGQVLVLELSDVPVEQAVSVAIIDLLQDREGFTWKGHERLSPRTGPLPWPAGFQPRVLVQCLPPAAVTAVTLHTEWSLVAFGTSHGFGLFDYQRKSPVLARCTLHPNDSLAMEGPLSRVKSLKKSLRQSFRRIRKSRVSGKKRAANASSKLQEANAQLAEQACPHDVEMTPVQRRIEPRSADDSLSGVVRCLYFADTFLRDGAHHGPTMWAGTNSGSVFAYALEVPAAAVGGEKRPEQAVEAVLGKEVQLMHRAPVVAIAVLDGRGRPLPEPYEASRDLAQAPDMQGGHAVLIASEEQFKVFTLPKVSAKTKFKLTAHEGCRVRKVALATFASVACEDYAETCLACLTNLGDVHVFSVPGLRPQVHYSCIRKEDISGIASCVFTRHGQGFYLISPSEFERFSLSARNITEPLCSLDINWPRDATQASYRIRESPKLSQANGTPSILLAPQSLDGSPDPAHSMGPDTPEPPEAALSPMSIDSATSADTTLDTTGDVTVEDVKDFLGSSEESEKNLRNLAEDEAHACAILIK
UniProt P49257: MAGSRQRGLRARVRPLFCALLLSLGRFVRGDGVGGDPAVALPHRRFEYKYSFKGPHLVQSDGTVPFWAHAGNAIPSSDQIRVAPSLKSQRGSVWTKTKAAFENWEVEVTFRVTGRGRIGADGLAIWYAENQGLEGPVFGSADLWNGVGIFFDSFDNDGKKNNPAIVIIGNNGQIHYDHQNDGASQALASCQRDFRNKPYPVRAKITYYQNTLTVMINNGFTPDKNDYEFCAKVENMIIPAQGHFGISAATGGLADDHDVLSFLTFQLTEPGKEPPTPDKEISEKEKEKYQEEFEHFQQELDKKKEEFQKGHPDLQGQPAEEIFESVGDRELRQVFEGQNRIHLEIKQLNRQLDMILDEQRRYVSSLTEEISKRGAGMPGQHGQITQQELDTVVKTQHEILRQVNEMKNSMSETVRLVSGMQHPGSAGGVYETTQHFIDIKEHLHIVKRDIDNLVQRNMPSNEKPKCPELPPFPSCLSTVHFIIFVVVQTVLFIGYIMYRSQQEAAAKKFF
UniProt Q9BQK8: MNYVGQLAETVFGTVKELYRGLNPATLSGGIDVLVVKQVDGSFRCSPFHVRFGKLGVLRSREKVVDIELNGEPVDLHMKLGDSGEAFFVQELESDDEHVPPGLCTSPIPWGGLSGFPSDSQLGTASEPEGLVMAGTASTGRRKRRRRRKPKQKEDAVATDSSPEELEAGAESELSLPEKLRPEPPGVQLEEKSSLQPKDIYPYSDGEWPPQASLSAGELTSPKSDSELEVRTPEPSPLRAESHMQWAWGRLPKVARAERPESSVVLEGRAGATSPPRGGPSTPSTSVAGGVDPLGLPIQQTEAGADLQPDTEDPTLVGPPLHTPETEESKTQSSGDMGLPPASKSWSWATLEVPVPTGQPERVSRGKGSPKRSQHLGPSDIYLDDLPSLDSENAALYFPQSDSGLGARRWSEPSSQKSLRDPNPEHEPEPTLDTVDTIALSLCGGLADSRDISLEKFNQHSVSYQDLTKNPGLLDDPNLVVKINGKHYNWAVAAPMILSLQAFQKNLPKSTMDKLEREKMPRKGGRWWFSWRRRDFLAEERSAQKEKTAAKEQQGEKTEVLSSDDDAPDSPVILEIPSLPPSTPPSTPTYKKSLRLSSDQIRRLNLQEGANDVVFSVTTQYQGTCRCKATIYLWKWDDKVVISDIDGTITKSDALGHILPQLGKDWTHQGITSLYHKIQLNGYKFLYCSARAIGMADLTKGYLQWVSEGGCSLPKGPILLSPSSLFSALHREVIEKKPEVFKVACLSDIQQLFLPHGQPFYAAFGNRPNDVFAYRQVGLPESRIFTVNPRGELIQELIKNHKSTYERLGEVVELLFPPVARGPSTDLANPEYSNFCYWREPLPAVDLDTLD
UniProt P30533, whole entry, looked up: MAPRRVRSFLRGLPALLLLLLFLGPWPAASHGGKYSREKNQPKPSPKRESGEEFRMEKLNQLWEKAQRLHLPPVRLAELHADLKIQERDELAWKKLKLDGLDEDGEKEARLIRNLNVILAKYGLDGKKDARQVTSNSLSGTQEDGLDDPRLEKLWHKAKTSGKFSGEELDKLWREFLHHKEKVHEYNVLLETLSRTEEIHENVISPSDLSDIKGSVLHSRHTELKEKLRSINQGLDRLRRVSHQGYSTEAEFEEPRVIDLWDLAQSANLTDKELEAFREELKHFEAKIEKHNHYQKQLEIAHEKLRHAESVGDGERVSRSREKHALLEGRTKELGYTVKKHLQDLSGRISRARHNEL
UniProt P53671: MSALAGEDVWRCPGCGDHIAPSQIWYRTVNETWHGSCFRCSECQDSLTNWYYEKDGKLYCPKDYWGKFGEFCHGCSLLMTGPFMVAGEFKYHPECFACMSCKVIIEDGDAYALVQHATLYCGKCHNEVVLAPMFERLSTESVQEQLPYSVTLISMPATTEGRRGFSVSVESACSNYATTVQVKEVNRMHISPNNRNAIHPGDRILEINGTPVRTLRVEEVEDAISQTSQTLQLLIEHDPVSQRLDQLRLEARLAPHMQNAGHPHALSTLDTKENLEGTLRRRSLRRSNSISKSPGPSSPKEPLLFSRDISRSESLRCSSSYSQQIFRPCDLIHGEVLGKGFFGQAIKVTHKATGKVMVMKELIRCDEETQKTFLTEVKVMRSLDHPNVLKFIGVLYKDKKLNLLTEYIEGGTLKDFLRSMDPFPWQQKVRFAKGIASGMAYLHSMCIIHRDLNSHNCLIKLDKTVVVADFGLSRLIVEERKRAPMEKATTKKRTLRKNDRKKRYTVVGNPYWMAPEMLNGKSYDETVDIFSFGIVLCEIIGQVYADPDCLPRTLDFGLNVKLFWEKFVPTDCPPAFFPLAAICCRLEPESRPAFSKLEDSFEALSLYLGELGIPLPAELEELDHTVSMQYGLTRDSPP
UniProt Q9NT99: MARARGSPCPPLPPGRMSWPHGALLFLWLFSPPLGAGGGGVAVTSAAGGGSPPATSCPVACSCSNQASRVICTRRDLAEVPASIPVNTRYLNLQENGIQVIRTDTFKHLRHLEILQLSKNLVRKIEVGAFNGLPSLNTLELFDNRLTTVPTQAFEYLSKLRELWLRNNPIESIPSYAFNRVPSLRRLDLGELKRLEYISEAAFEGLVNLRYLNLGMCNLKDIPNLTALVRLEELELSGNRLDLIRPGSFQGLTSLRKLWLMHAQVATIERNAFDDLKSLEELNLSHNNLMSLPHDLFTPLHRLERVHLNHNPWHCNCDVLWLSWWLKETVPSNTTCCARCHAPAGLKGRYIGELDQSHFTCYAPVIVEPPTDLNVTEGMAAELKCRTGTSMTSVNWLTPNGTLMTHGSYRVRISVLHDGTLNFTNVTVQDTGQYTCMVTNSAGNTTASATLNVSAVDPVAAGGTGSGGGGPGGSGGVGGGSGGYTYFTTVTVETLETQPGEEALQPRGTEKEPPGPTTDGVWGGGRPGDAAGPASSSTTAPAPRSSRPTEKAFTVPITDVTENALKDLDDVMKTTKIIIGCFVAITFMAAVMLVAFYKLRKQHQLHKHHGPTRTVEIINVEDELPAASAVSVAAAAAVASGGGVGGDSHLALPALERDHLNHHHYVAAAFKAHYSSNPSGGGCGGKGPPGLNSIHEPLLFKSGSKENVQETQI
UniProt Q9Y4W2: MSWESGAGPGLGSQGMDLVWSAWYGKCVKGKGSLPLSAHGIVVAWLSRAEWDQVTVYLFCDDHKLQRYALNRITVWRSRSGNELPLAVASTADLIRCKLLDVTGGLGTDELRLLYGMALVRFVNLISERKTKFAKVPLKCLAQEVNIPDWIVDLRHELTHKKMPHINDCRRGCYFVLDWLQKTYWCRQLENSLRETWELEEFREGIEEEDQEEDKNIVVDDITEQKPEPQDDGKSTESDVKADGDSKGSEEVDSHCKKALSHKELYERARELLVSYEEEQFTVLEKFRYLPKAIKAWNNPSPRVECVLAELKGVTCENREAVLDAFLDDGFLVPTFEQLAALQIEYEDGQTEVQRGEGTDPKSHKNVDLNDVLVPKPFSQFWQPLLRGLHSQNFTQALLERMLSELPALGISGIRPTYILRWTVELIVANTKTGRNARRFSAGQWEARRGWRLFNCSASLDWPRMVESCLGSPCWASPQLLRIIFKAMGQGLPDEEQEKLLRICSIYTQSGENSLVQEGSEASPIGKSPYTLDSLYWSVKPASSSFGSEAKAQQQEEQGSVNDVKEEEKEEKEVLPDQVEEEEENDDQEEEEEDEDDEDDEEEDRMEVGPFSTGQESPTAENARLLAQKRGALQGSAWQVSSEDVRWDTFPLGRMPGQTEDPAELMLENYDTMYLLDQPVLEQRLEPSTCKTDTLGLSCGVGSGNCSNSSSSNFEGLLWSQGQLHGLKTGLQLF
UniProt Q9Y608: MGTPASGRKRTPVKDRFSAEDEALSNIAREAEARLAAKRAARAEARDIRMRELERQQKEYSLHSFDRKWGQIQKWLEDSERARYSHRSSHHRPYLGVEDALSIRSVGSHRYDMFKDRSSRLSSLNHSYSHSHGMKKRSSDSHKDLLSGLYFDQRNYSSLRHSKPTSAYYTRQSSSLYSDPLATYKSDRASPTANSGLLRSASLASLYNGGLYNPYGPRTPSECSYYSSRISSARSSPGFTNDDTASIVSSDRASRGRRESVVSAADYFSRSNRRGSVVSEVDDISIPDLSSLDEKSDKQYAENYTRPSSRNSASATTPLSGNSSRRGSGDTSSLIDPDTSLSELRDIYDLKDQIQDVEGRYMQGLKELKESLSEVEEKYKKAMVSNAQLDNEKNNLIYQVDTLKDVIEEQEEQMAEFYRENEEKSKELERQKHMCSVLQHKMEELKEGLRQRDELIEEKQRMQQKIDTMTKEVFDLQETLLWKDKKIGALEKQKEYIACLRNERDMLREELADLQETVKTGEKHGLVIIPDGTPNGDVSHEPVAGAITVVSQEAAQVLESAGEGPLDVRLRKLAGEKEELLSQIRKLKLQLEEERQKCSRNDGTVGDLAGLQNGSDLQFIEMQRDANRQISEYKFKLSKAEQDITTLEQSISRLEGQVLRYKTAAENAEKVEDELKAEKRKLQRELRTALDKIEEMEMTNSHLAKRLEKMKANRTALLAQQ
UniProt Q9H6V9: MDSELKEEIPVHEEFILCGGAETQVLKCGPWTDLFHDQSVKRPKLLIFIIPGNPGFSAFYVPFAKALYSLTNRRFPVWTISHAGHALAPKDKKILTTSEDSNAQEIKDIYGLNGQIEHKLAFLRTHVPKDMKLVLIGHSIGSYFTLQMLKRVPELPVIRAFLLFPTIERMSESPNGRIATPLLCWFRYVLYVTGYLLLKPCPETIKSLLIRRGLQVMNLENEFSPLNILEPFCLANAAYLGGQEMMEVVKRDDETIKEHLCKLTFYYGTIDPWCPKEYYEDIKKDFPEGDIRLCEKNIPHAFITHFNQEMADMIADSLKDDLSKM
UniProt Q86U70: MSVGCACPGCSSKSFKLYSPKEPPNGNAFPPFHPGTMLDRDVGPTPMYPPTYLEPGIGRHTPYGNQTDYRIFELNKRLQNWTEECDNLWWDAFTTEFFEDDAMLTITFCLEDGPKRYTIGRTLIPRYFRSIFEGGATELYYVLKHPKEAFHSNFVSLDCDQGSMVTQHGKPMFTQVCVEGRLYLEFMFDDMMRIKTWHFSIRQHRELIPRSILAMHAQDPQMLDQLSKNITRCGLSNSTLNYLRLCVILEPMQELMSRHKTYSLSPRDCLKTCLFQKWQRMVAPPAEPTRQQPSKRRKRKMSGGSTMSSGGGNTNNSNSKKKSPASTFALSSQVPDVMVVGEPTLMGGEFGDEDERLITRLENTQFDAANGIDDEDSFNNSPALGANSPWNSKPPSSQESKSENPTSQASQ
UniProt Q9H008: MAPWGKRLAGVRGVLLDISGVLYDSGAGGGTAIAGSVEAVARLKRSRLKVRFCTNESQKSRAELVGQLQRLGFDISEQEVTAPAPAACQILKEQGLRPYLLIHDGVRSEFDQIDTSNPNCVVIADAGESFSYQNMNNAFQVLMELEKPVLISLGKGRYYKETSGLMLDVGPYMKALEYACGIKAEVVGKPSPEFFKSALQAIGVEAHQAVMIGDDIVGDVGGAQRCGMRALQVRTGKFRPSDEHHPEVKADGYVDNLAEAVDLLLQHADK

Assays:
Assay in all cases: log2 fold change, soluble protein after heating vs DMSO (PISA); higher = thermal stabilisation; K562 lysate, 10 uM; active = over 0.2 and 3.5 SD of the protein, either way, in both replicates (recomputed)
[1] = compound: C#Cc1cccc(Nc2ncnc3cc(OCCOC)c(OCCOC)cc23)c1 [erlotinib]
Method in brief: (§1)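 Following dounce homogenisation of K562 pellets in PBS pH 7.4 with 1 mM MgCl2, crude extract at 1 mg/mL protein was incubated for 30 min with 10 μM compound. Aliquots were then heated for 3 min over 48°C-58°C and pooled, NP-40 was added to 0.5% at 4°C, and soluble protein was recovered as the supernatant at 21,000xg for 90 min. Channel-sum-equalised TMTpro 16plex LC-MS/MS quantified this protein. Each value, from duplicates, is a log-two fold change in thermal stability relative to solvent controls.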

[2] = compound: C/C(=N\NC(=O)C1=CC(=CC=C1)S(=O)(=O)N2CCOCC2)/C3=C(C=CC(=C3)Cl)O
Method in brief: as §1

[3] = compound: C1=CC(=CC=C1C2=NC3=C(N2)C=C(C=C3)C(=O)N)OC4=CC=C(C=C4)Cl
Method in brief: as §1

[4] = compound: C1=CC2=C(C=CC(=C2)/C=C\3/C(=O)NC(=NCC4=CC=CS4)S3)N=C1
Method in brief: as §1

[5] = compound: C1=CC2=NC=CN=C2C=C1/C=C/3\C(=O)NC(=O)S3
Method in brief: as §1

[6] = compound: C1=CC=C(C=C1)C2=NC(=C(N2)C3=CC=NC=C3)C4=CC(=C(C=C4)Cl)O
Method in brief: as §1

[7] = compound: C1=CC=C2C(=C1)C3=NNC4=CC=CC(=C43)C2=O
Method in brief: as §1

[8] = compound: C1CCN(C1)C(=O)NC2=CC=CC(=C2)NC3=NC=C(C(=N3)NCCC4=CN=CN4)Br
Method in brief: as §1

[9] = compound: C1CN(CCC1(CC2=CC=C(C=C2)Cl)N)C3=NC=NC4=C3C=CN4
Method in brief: as §1

[10] = compound: C1COCCN1CCN2C3=CC=CC=C3N=C2NC(=O)C4=CC(=CC=C4)[N+](=O)[O-] [IRAK-1-4 Inhibitor I]
Method in brief: as §1

[11] = compound: C=CC(=O)N1CCC[C@@H](n2nc(-c3ccc(Oc4ccccc4)cc3)c3c(N)ncnc32)C1 [ibrutinib]
Method in brief: as §1

[12] = compound: CC(=O)c1cnc2ccc(-c3cc(Cl)c(O)c(Cl)c3)nc2c1N[C@H]1CC[C@H](CN(C)C)CC1
Method in brief: as §1

[13] = compound: CC(C)(C)Cn1c(N)nc2ccc(-c3[nH]c(C(C)(C)C)nc3-c3ccc(F)cc3)nc21 [ralimetinib]
Method in brief: as §1

[14] = compound: CC(C)(O)CC(=O)NCCn1ccc2ncnc(Nc3ccc(Oc4cccc(C(F)(F)F)c4)c(Cl)c3)c21
Method in brief: as §1

[15] = compound: CC(C)C1=C2N=C(C=C(N2N=C1)NCC3=CC=CC=C3)NCCCCCCN
Method in brief: as §1

[16] = compound: CC1=C(C(CC(=O)N1)C2=CC=C(C=C2)C(F)(F)F)C(=O)NC3=C(C=C4C(=C3)C=NN4)F
Method in brief: as §1

[17] = compound: CC1=C(C2=C(C=C1)C(=O)C3=CC=CC=C3N2CCCN)C
Method in brief: as §1

[18] = compound: CC1=C(C=C(C=C1)NC(=O)C2=CC(=CC=C2)C(C)(C)C#N)NC3=CC4=C(C=C3)N=CN(C4=O)C
Method in brief: as §1

[19] = compound: CC1=C(C=C(C=C1)NC(=O)C2=CC(=CC=C2)N(C)C)NC(=O)C3=CC=C(C=C3)O
Method in brief: as §1

[20] = compound: CC1=CC=C(C=C1)SC2=C3C=C(SC3=CN=C2)C(=O)N
Method in brief: as §1

Measured: log2 fold change

LLGL1 (UniProt Q15334)
inactive: [1] 0.036 | [2] -0.06 | [3] 0.021 | [4] 0.02 | [5] 0.007 | [6] 0.001 | [7] -0.112 | [8] -0.08 | [9] 0.018 | [10] -0.136 | [11] 0.007 | [12] 0.091 | [13] 0.071 | [14] 0.015 | [15] -0.141 | [16] 0.033 | [17] -0.058 | [18] 0.019 | [19] 0.174 | [20] -0.011

LMAN1 (UniProt P49257)
inactive: [1] -0.011 | [2] -0.018 | [3] 0.06 | [4] 0 | [5] -0.013 | [6] -0.009 | [7] -0.029 | [8] -0.006 | [9] 0.004 | [10] 0.01 | [11] -0.02 | [12] -0.038 | [13] -0.015 | [14] -0.036 | [15] -0.012 | [16] 0.01 | [17] -0.037 | [18] -0.001 | [19] 0.022 | [20] -0.029

LPIN3 isoform 2 (UniProt Q9BQK8)
inactive: [1] 0.025 | [2] -0.03 | [3] -0.017 | [4] 0.041 | [5] -0.005 | [6] 0.017 | [7] -0.097 | [8] -0.073 | [9] -0.05 | [10] -0.025 | [11] -0.071 | [12] 0.026 | [13] 0.004 | [14] -0.02 | [15] -0.12 | [16] -0.057 | [17] -0.148 | [18] 0 | [19] 0.015 | [20] -0.034

LRPAP1 (UniProt P30533)
inactive: [1] -0.051 | [2] -0.006 | [3] 0.008 | [4] -0.03 | [5] 0.014 | [6] -0.017 | [7] -0.078 | [8] 0.046 | [9] -0.016 | [10] 0.018 | [11] -0.003 | [12] -0.003 | [13] -0.056 | [14] -0.025 | [15] 0.004 | [16] 0.006 | [17] 0 | [18] -0.028 | [19] -0.012 | [20] -0.035

LIMK2 isoform 3 (UniProt P53671)
inactive: [1] -0.013 | [2] -0.038 | [3] -0.048 | [4] 0.062 | [5] 0.053 | [6] 0.016 | [7] 0.003 | [8] -0.002 | [9] 0.001 | [10] -0.031 | [11] 0.129 | [12] 0.003 | [13] 0 | [14] 0.018 | [15] 0.008 | [16] -0.03 | [17] -0.005 | [18] 0.175 | [19] 0.013 | [20] -0.073

LRRC4B (UniProt Q9NT99)
inactive: [1] 0.01 | [2] -0.005 | [3] -0.027 | [4] -0.114 | [5] -0.148 | [6] 0.011 | [7] 0.055 | [8] -0.027 | [9] -0.009 | [10] 0.085 | [11] 0.032 | [12] 0.063 | [13] -0.015 | [14] -0.079 | [15] -0.017 | [16] 0.101 | [17] 0.098 | [18] 0.016 | [19] 0.077 | [20] 0.04

LRCH3 (UniProt Q96II8)
inactive: [1] 0.043 | [2] 0.047 | [3] 0.021 | [4] -0.013 | [5] 0.001 | [6] 0 | [7] -0.053 | [8] -0.102 | [9] -0.014 | [10] 0.028 | [11] -0.052 | [12] -0.016 | [13] -0.004 | [14] -0.017 | [15] 0.015 | [16] -0.015 | [17] -0.025 | [18] 0.047 | [19] 0.07 | [20] 0.034

LMBRD1 (UniProt Q9NUN5)
inactive: [1] -0.007 | [2] 0.02 | [3] -0.009 | [4] -0.028 | [5] 0.059 | [6] 0.066 | [7] 0.007 | [8] 0.005 | [9] 0.02 | [10] 0.036 | [11] -0.114 | [12] -0.019 | [13] -0.031 | [14] 0.051 | [15] 0.025 | [16] 0.004 | [17] -0.015 | [18] 0.075 | [19] -0.048 | [20] -0.055

LAS1L (UniProt Q9Y4W2)
inactive: [1] 0.053 | [2] -0.011 | [3] -0.003 | [4] -0.018 | [5] 0.022 | [6] 0.007 | [7] 0.028 | [8] -0.004 | [9] -0.027 | [10] -0.002 | [11] -0.016 | [12] 0.017 | [13] 0.043 | [14] -0.017 | [15] 0.042 | [16] 0.035 | [17] -0.061 | [18] -0.006 | [19] 0.037 | [20] 0.035

LRRFIP2 (UniProt Q9Y608)
inactive: [1] -0.033 | [2] 0.004 | [3] 0.043 | [4] -0.001 | [5] -0.008 | [6] 0.013 | [7] 0.008 | [8] 0.025 | [9] -0.018 | [10] -0.039 | [11] 0 | [12] 0.009 | [13] 0.012 | [14] -0.052 | [15] -0.051 | [16] 0.018 | [17] -0.017 | [18] 0.017 | [19] 0.023 | [20] -0.017

LRBA (UniProt P50851)
inactive: [1] -0.007 | [2] 0.007 | [3] -0.005 | [4] -0.01 | [5] -0.002 | [6] -0.008 | [7] -0.016 | [8] -0.013 | [9] 0.008 | [10] 0.009 | [11] 0 | [12] 0.004 | [13] 0.02 | [14] -0.024 | [15] -0.009 | [16] -0.003 | [17] 0.005 | [18] 0.016 | [19] 0.012 | [20] 0.008

LRRC41 (UniProt Q15345)
inactive: [1] 0.017 | [2] 0.034 | [3] -0.055 | [4] -0.076 | [5] 0 | [6] -0.066 | [7] 0.059 | [8] 0.05 | [9] 0.065 | [10] 0.047 | [11] 0.079 | [12] -0.042 | [13] -0.016 | [14] -0.08 | [15] 0.028 | [16] 0.075 | [17] -0.027 | [18] -0.041 | [19] -0.012 | [20] -0.2

LMNB1 (UniProt P20700)
inactive: [1] -0.029 | [2] 0.019 | [3] -0.032 | [4] -0.019 | [5] -0.032 | [6] 0.016 | [7] 0.008 | [8] -0.01 | [9] -0.009 | [10] -0.036 | [11] 0.031 | [12] -0.008 | [13] -0.016 | [14] 0.026 | [15] -0.006 | [16] 0.005 | [17] -0.019 | [18] 0.007 | [19] -0.038 | [20] -0.013

LDAH isoform 2 (UniProt Q9H6V9)
inactive: [1] -0.017 | [2] -0.015 | [3] -0.057 | [4] -0.023 | [5] 0.005 | [6] -0.01 | [7] -0.021 | [8] -0.032 | [9] 0 | [10] 0.029 | [11] 0.015 | [12] 0.021 | [13] 0.029 | [14] 0.097 | [15] -0.018 | [16] 0.006 | [17] 0.029 | [18] 0.007 | [19] 0 | [20] 0.014

LDB1 (UniProt Q86U70)
inactive: [1] 0.049 | [2] -0.024 | [3] 0.051 | [4] 0.042 | [5] -0.006 | [6] 0.002 | [7] -0.065 | [8] 0.001 | [9] 0.045 | [10] 0.01 | [11] 0.013 | [12] 0.014 | [13] -0.012 | [14] 0.002 | [15] -0.002 | [16] 0.003 | [17] -0.047 | [18] -0.025 | [19] 0.02 | [20] 0.033

LHPP (UniProt Q9H008)
inactive: [1] -0.024 | [2] -0.188 | [3] -0.005 | [4] -0.013 | [5] -0.021 | [6] -0.02 | [7] -0.084 | [8] 0.031 | [9] 0.092 | [10] -0.012 | [11] -0.013 | [12] -0.02 | [13] -0.004 | [14] -0.013 | [15] -0.005 | [16] 0.011 | [17] 0.005 | [18] 0.024 | [19] -0.016 | [20] -0.009

2 neighbouring records from above:
LMNB1 (UniProt P20700)
inactive: [1] -0.029 | [2] 0.019 | [3] -0.032 | [4] -0.019 | [5] -0.032 | [6] 0.016 | [7] 0.008 | [8] -0.01 | [9] -0.009 | [10] -0.036 | [11] 0.031 | [12] -0.008 | [13] -0.016 | [14] 0.026 | [15] -0.006 | [16] 0.005 | [17] -0.019 | [18] 0.007 | [19] -0.038 | [20] -0.013

LDAH isoform 2 (UniProt Q9H6V9)
inactive: [1] -0.017 | [2] -0.015 | [3] -0.057 | [4] -0.023 | [5] 0.005 | [6] -0.01 | [7] -0.021 | [8] -0.032 | [9] 0 | [10] 0.029 | [11] 0.015 | [12] 0.021 | [13] 0.029 | [14] 0.097 | [15] -0.018 | [16] 0.006 | [17] 0.029 | [18] 0.007 | [19] 0 | [20] 0.014
